# In PMC3776929:
# By UniProt entry, the sequences of proteins in these tests, tags left out.
# UniProt Q05471: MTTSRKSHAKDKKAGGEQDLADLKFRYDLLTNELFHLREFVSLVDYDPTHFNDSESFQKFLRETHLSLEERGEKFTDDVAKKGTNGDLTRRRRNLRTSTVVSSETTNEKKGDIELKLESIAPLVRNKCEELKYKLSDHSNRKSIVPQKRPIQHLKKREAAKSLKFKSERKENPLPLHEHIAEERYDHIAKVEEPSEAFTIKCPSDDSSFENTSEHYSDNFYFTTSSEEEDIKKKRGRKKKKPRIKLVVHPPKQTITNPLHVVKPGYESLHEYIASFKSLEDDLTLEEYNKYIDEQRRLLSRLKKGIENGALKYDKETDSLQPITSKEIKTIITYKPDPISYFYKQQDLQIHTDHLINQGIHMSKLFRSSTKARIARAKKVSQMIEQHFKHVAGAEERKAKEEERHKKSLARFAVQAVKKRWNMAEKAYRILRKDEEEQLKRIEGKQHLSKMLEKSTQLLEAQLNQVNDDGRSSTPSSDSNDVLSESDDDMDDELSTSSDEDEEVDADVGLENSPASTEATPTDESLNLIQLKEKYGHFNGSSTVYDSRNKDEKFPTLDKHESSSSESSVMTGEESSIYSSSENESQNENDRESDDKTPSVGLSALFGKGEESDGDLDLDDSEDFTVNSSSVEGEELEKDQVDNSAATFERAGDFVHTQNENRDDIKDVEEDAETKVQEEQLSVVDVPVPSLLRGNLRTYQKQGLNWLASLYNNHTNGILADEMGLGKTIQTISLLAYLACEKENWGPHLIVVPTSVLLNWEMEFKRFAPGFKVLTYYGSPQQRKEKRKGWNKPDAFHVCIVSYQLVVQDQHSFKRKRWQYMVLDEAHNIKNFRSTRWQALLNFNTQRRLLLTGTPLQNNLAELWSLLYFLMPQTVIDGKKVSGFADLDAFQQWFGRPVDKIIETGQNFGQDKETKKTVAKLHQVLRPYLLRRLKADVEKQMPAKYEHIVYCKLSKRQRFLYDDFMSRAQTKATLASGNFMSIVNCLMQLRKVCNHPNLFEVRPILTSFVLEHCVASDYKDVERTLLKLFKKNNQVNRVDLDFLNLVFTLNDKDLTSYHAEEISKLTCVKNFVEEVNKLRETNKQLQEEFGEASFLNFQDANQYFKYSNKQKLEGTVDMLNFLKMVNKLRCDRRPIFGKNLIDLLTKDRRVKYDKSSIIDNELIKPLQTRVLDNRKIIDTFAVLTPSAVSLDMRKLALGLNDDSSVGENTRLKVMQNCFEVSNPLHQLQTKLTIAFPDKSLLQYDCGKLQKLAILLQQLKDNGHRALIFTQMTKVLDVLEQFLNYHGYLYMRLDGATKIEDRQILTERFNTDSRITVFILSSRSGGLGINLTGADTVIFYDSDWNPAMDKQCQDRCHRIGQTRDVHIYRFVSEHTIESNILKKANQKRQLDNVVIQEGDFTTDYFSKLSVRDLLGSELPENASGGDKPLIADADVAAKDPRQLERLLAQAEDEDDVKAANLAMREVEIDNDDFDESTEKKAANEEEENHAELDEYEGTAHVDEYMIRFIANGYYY
# Results are given in words; binding and its absence hold for the method and conditions named. Binding seen in cells or lysates may run through a third protein. Some binding calls cover weakened binding; strength is not graded here.
# Biological target: Swr1, FLAG-tagged catalytic subunit of the SWR1 complex (S. cerevisiae) (UniProt Q05471)
# Experiment: co-IP; FLAG affinity purification of SWR1 (or a subcomplex) from S. cerevisiae, eluted with 3× FLAG peptide; SDS-PAGE (4%-12% Bis-Tris), Coomassie or SYPRO Orange stain; band intensities normalised for protein size for the stoichiometry
row,binding,Binder
1,binds,"Arp4 (protein, UniProt P80428 1-489) MSNAALQVYGGDEVSAVVIDPGSYTTNIGYSGSDFPQSILPSVYGKYTADEGNKKIFSEQSIGIPRKDYELKPIIENGLVIDWDTAQEQWQWALQNELYLNSNSGIPALLTEPVWNSTENRKKSLEVLLEGMQFEACYLAPTSTCVSFAAGRPNCLVVDIGHDTCSVSPIVDGMTLSKSTRRNFIAGKFINHLIKKALEPKEIIPLFAIKQRKPEFIKKTFDYEVDKSLYDYANNRGFFQECKETLCHICPTKTLEETKTELSSTAKRSIESPWNEEIVFDNETRYGFAEELFLPKEDDIPANWPRSNSGVVKTWRNDYVPLKRTKPSGVNKSDKKVTPTEEKEQEAVSKSTSPAANSADTPNETGKRPLEEEKPPKENNELIGLADLVYSSIMSSDVDLRATLAHNVVLTGGTSSIPGLSDRLMTELNKILPSLKFRILTTGHTIERQYQSWLGGSILTSLGTFHQLWVGKKEYEEVGVERLLNDRFR"
2,binds,"Yaf9 (protein, UniProt P53930 1-226) MAPTISKRIKTLSVSRPIIYGNTAKKMGSVKPPNAPAEHTHLWTIFVRGPQNEDISYFIKKVVFKLHDTYPNPVRSIEAPPFELTETGWGEFDINIKVYFVEEANEKVLNFYHRLRLHPYANPVPNSDNGNEQNTTDHNSKDAEVSSVYFDEIVFNEPNEEFFKILMSRPGNLLPSNKTDDCVYSKQLEQEEIDRIEIGIEKVDKEIDELKQKLENLVKQEAINGS"
3,binds,"Bdf1 (protein, UniProt P35817 1-686) MTDITPVQNDVDVNGNNVNDDVSSNLKRPIDQGDPSNGLAEEENPANNQLHLKKARLDGDALTSSPAGLAENGIEGATLAANGENGYNATGSGAEDEQQGLKKEEGGQGTKQEDLDENSKQELPMEVPKEPAPAPPPEPDMNNLPQNPIPKHQQKHALLAIKAVKRLKDARPFLQPVDPVKLDIPFYFNYIKRPMDLSTIERKLNVGAYEVPEQITEDFNLMVNNSIKFNGPNAGISQMARNIQASFEKHMLNMPAKDAPPVIAKGRRSSAQEDAPIVIRRAQTHNGRPKRTIHPPKSKDIYPYESKKPKSKRLQQAMKFCQSVLKELMAKKHASYNYPFLEPVDPVSMNLPTYFDYVKEPMDLGTIAKKLNDWQYQTMEDFERDVRLVFKNCYTFNPDGTIVNMMGHRLEEVFNSKWADRPNLDDYDSDEDSRTQGDYDDYESEYSESDIDETIITNPAIQYLEEQLARMKVELQQLKKQELEKIRKERRLARGSKKRGKRSKGRSGSKNASSKGRRDKKNKLKTVVTYDMKRIITERINDLPTSKLERAIDIIKKSMPNISEDDEVELDLDTLDNHTILTLYNTFFRQYESSSGASNGLDGTSGVTRDASSLSPTSAGSRKRRSKALSQEEQSRQIEKIKNKLAILDSASPLSQNGSPGQIQSAAHNGFSSSSDDDVSSESEEE"
